Experimental data reported in patent USRE49444E1, “Method of treating osteoporosis comprising administration of PTHrP analog” (priority 2006, dated 2023).
At least one compound was matched to its structure with a doubt left.

How the values were obtained:
[1] = system: Bacteria and Yeasts/moulds; assay: Preservative effectiveness test (European Pharmacopoeia 5.1.3), overall result; assay type: cell-based
Procedure: Solutions were prepared at room temperature, by dissolution of the various ingredients in water for injection, with stirring over <30 minutes to ensure complete dissolution, Solutions were filtered through 0.2 micron filter and filled into glass vials, to which a rubber stopper was applied and crimped in place to ensure complete closure.
The solutions were then stored for up to 3 months at 25° C., and up to 4.5 months at 5° C. and the preservative effectiveness test repeated. as described in Example 5.

[2] = Preservative stability (preservative content) in the formulations; assay type: physicochemical; conditions: 5 and 25° C. storage

Compound: Cc1cc(O)ccc1Cl [Chlorocresol]
- preservative efficacy ([1]; after 3 and 4.5 months storage): maintained
- Preservative effectiveness test Results ([1]; after manufacturing): compliant
- preservative stability compared among preservatives [2]: lower stability
